According to paper PMC12715911:
No constants are given. Whether binding was seen depends on the method and setting. In cells and extracts the contact can be indirect. A result given as binding can be weak or reduced; the word gives no strength.

Target: T1, nuclear factor erythroid 2-related factor 2 (NRF2) (bovine (endogenous in BEECs)) (UniProt Q5NUA6)
T1 sequence: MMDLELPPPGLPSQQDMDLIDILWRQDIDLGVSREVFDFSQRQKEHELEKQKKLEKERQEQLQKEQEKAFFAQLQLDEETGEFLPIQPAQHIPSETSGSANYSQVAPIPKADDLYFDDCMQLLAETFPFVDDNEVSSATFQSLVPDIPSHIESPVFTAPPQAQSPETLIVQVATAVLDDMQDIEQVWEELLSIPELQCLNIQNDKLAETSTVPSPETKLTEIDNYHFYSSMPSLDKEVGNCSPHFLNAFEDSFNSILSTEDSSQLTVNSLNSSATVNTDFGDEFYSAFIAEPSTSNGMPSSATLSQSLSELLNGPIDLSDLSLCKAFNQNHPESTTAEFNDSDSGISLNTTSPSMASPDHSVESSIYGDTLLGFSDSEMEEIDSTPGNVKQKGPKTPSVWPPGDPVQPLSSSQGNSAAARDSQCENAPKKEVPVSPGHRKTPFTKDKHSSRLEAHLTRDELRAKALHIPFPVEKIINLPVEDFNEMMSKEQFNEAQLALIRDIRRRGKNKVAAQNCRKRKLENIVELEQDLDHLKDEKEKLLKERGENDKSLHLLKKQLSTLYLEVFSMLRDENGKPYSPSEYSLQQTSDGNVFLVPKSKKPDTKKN
Test: co-IP; BEEC lysate incubated with anti-NRF2 antibody at 4 °C overnight, then protein A/G at 4 °C overnight; washed three times; immunoblot with anti-GSK-3β; BEECs infected with E. coli

- binding: binds
Substance: glycogen synthase kinase (GSK)-3β (bovine (endogenous in BEECs))
